Data source: PubChem BioAssay AID652259 (Drosophila RNAi Screening Center, 2013)

Purpose: 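Knock-downs that push a Wingless-driven reporter up or down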 (primary screen)
System: Drosophila clone 8 imaginal disc epithelial cells
Knock-down reagent: long dsRNA against Drosophila genes
Treatment: pathway stimulated by co-transfected Wingless expression plasmid
Measured: 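Dual luciferase reads per well after Wingless plasmid stimulation: reporter firefly light and Renilla control light; activity is firefly divided by Renilla, a ratio not deposited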
Reading the numbers: firefly reporter light: higher = more Wg reporter light, before normalisation; Renilla control light: higher = more transfected or surviving cells
Active means: 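Strong candidates differ from their plate mean by at least two out of four per-plate statistical tests; weak candidates meet just one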
Meaning of the calls: active = candidate regulator (raises or lowers reporter); inactive = not a candidate
In all, the deposit lists about 22,000 reagents; below is a random part of those that have a named target and a result. In the full data, 233 (1.1%) are marked active. 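Light values are raw, unnormalised plate reads; the ratio scores behind the reporter calls were not deposited.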 A plus sign joins genes that one reagent is predicted to hit. Not given: the amount of reagent, the time to read-out, the dose of the treatment.

| Gene | amplicon | reporter change call, replicate 1 | firefly reporter light, replicate 1 | firefly reporter light, replicate 2 | Renilla control light, replicate 1 | Renilla control light, replicate 2 | Outcome |
| --- | --- | --- | --- | --- | --- | --- | --- |
| Ugt35A1 (GeneID 41334) | DRSC16892 | – | 5752 | – | 1873 | – | inactive |
| CG42342 (GeneID 7354466) | DRSC13165 | – | 2937 | – | 1760 | – | inactive |
| CG42342 (GeneID 7354466) | DRSC14378 | Wg reporter activity raised | 3639 | – | 331 | – | active |
| CG42342 (GeneID 7354466) | DRSC15010 | – | 21770 | – | 6820 | – | inactive |
| CG42342 (GeneID 7354466) | DRSC15011 | – | 16901 | – | 4700 | – | inactive |
| CG42342 (GeneID 7354466) | DRSC15012 | – | 15206 | – | 4588 | – | inactive |
| CG42342 (GeneID 7354466) | DRSC21791 | – | 4.99e5 | 4.66e5 | 1.66e5 | 1.18e5 | inactive |
| CG42342 (GeneID 7354466) | DRSC22861 | – | 4.87e5 | 4.69e5 | 2.06e5 | 2.46e5 | inactive |
| mRpL40 (GeneID 41364) | DRSC15749 | – | 15709 | – | 3449 | – | inactive |
| RpS29 + snoRNA:Psi18S-1275 | DRSC16433 | – | 8064 | – | 2587 | – | inactive |
| Vrp1 (GeneID 37521) | DRSC04148 | – | 9811 | – | 2952 | – | inactive |
| bru3 (GeneID 39527) | DRSC09280 | – | 4474 | – | 2195 | – | inactive |
| bru3 (GeneID 39527) | DRSC09291 | – | 3506 | – | 443 | – | inactive |
| bru3 (GeneID 39527) | DRSC09292 | – | 4748 | – | 690 | – | inactive |
| bru3 (GeneID 39527) | DRSC09687 | – | 7233 | – | 2555 | – | inactive |
| bru3 (GeneID 39527) | DRSC09887 | – | 4310 | – | 1802 | – | inactive |
| bru3 (GeneID 39527) | DRSC22732 | – | 5.36e5 | 5.65e5 | 1.65e5 | 1.65e5 | inactive |
| CG10822 (GeneID 37274) | DRSC06005 | – | 5077 | – | 1299 | – | inactive |
| CG34282 (GeneID 42248) | DRSC16298 | – | 15128 | – | 3168 | – | inactive |
| CG12091 (GeneID 38177) | DRSC08251 | – | 3842 | – | 1724 | – | inactive |
| Paics (GeneID 32228) | DRSC20305 | – | 1688 | 4944 | 745 | 1304 | inactive |
| galla-2 (GeneID 39221) | DRSC10936 | – | 7600 | – | 4416 | – | inactive |
| galla-2 (GeneID 39221) | DRSC21949 | – | 5.30e5 | 5.34e5 | 2.19e5 | 2.20e5 | inactive |
| Fbxo42 (GeneID 37532) | DRSC04529 | – | 11037 | – | 2587 | – | inactive |
| CG10376 (GeneID 35126) | DRSC02049 | – | 6040 | – | 2119 | – | inactive |
| Elo68alpha (GeneID 317841) | DRSC22725 | – | 6.41e5 | 6.69e5 | 2.56e5 | 90153 | inactive |
| Pdk1 (GeneID 38017) | DRSC08682 | – | 5376 | – | 1721 | – | inactive |
| Srp72 (GeneID 42439) | DRSC15800 | – | 4066 | 6994 | 1561 | 1653 | inactive |
| geko (GeneID 50263) | DRSC10044 | – | 8336 | – | 2800 | – | inactive |
| geko (GeneID 50263) | DRSC10045 | – | 7686 | – | 3600 | – | inactive |

4 of these entries, reformatted.
Gene,amplicon,"reporter change call, replicate 1","firefly reporter light, replicate 1","firefly reporter light, replicate 2","Renilla control light, replicate 1","Renilla control light, replicate 2",Outcome
CG42342 (GeneID 7354466),DRSC21791,,4.99e5,4.66e5,1.66e5,1.18e5,inactive
CG42342 (GeneID 7354466),DRSC22861,,4.87e5,4.69e5,2.06e5,2.46e5,inactive
mRpL40 (GeneID 41364),DRSC15749,,15709,,3449,,inactive
RpS29 + snoRNA:Psi18S-1275,DRSC16433,,8064,,2587,,inactive
